According to the supplement of paper PMC12889115:
Some of the results follow. Values are raw readings; no control value is given beside them.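 First-pass screen: polymyxin B was added at a level that permeabilizes the Salmonella outer membrane while sparing the inner membrane. DMSO wells, with and without polymyxin B, defined maximum growth. Because plates differed from one another, each plate's data were ranked separately and the compounds with the lowest OD600 were carried forward as hits.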

System: Salmonella enterica serovar Typhimurium SL1344
Test: bacterial growth OD600 after 18 h with compound and polymyxin B; higher = more bacterial growth (less inhibition)
Details: 50 µM, Mueller-Hinton broth

Compound	bacterial growth OD600 (polymyxin B 0.75 µg/mL)	bacterial growth OD600 (polymyxin B 1 µg/mL)
CCOc1ccc2nc(N3CCCN(Cc4ccc5nsnc5c4)CC3)nc(C)c2c1	0.732	–
CC(=O)c1ccc(C(=O)N2CCCC(CCC(=O)NCc3ccccc3Cl)C2)cc1 (centres undefined)	–	0.866
COc1ccc(CC2(CCC(=O)NCc3ccccc3F)CCC(=O)N2)c(F)c1 (centres undefined)	0.757	–
CN(Cc1cccnc1)C(=O)CC(c1cccc(O)c1)c1cccc(Cl)c1 (centres undefined)	–	0.639
COCCN1CCC(CNc2nc3nonc3nc2NC2CCCC2)CC1	–	0.986
CCN1CCN(C(=O)c2ccc(N3CCC(N(C)CCOc4ccc(C)cc4)CC3)cc2)CC1	0.767	–
Cc1ccc(CN(C)Cc2cnc(S(=O)(=O)Cc3ccccc3)n2CC(C)C)cc1	–	0.038
COc1cccc(N2CCN(C(=O)CCC3(Cc4ccc(F)c(OC)c4)CCC(=O)N3)CC2=O)c1 (centres undefined)	0.848	–
COc1cccc(CN(C)C(=O)CC2C(=O)NCCN2Cc2ccc(F)cc2Cl)c1 (centres undefined)	–	0.937
O=C(c1cccc(N2CCCC2=O)c1)N1CCOc2ccc(CN3CCc4ccccc4C3)cc2C1	0.804	–
COc1cccc(CN2CCN(Cc3c[nH]nc3-c3cccc(F)c3)CC2CCO)c1 (centres undefined)	–	1.07
COCCC1CCCCN1C(=O)CC1(c2ccccc2)CC(=O)N(Cc2ccc3c(c2)OCO3)C1=O (centres undefined)	0.003	–
CN(C(=O)c1n[nH]c2c1CCC2)C1CCCN(Cc2ccccc2F)C1 (centres undefined)	–	1.04
CCOc1ccc2nc(N3CCCC(NCc4c(C)nn(CC)c4C)CC3)nc(C)c2c1 (centres undefined)	0.787	–
COCCc1noc(-c2ccc(N(C)C(C)c3nccs3)nc2)n1 (centres undefined)	–	0.794
O=C(Cn1cccn1)NC1CC(=O)N(Cc2cccc3ccccc23)C1 (centres undefined)	–	0.949
Cc1cccc(C)c1OCc1cc(C(=O)NC(C2CC2)C2CC2)no1	–	0.791
CO[C@H]1[C@H](NC(=O)c2ccncc2)c2ccccc2C12CCN(C(=O)Cc1n[nH]c3ccccc13)CC2	0.84	–
Cc1c[nH]c(CN(C)C(=O)C2(N3C[C@@H](C)O[C@@H](C)C3)Cc3ccccc3C2)n1	-0.005	–

Single records, as listed above.
COCCc1noc(-c2ccc(N(C)C(C)c3nccs3)nc2)n1 (centres undefined) reads bacterial growth OD600 (polymyxin B 1 µg/mL): 0.794
O=C(c1cccc(N2CCCC2=O)c1)N1CCOc2ccc(CN3CCc4ccccc4C3)cc2C1 reads bacterial growth OD600 (polymyxin B 0.75 µg/mL): 0.804
